In publication PMC7819943, “Rice protein-binding microarrays: a tool to detect cis-acting elements near promoter regions in rice”:
The list shows a part of the results.

By UniProt entry, the sequences of proteins in these tests, tags left out.
UniProt Q0JBA9, entry or part of it: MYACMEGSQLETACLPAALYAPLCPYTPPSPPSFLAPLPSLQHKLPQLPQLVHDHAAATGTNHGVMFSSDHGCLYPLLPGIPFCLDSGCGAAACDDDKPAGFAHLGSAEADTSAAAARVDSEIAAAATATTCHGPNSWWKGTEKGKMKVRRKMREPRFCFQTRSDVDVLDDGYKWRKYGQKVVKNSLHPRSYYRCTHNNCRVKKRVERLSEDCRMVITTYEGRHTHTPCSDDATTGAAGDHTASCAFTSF

molecular target: OsWRKY34 (Oryza sativa, UniProt Q0JBA9 1-250); assay: protein-binding microarray (RPBM); PBS, 2% BSA, 51.3 ng/ul salmon testes DNA, 50 uM zinc acetate, 200 nM TF, 25 C, 1 h; high values mean tight binding; settings: protein: recombinant; tags: N-terminal polyhistidine and DsRed monomer fusion (pET32a); label: CyDye5-dUTP incorporated in the synthesized complementary strand; 3' TTTTT single-stranded linker to array surface; dsDNA, one strand shown
Outline: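 Binding signal here means per-feature fluorescence intensity in arbitrary units. The values were read on an Axon 4000B scanner after a custom Agilent array, double-stranded by primer extension with Cy5-dUTP, was incubated with 200 nM protein at 25 °C for 1 h in PBS with 2% BSA, salmon testes DNA and 50 µM zinc acetate, then washed. The proteins were transcription factors with an N-terminal polyhistidine tag and DsRed, expressed in E. coli BL21-CodonPlus and purified on Ni–NTA.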

Row | Sequence | binding signal
1 | CATTCTCCGCGCGGACGCTTTTCAAACTGCTAAACGGTATCGGAGTCACCTAGTGCAG | 11000 fluorescence intensity (a.u.)
2 | GGTAGTCTTTAGTTTGCTTTTTTTTCATGATTGGTGTCTTCGGAGTCACCTAGTGCAG | 8820 fluorescence intensity (a.u.)
3 | AGCCCATTGTTTGACACAGCCGTCTCCTCTCCATCTCTCCCGGAGTCACCTAGTGCAG | 8270 fluorescence intensity (a.u.)
4 | TCCAAACCACCACACAAACGGCGTCCCAGTGCGCACTTATCGGAGTCACCTAGTGCAG | 8880 fluorescence intensity (a.u.)
5 | TTGGTGGTTGGTGGGGAGCGTGGAGATGGCGGGGCTGTCCCGGAGTCACCTAGTGCAG | 22200 fluorescence intensity (a.u.)
6 | ATCCGTGTCAGCGTCACTCATCACGCACGCACCCATCAAACGGAGTCACCTAGTGCAG | 9290 fluorescence intensity (a.u.)
7 | ATAAATATGCCCCGGATCCATCTCTCCACCGCATCTCTCCCGGAGTCACCTAGTGCAG | 9230 fluorescence intensity (a.u.)
8 | TCCCTATAGAATATCTTCTCGGTTTTTACATGTCACCTAACGGAGTCACCTAGTGCAG | 9420 fluorescence intensity (a.u.)
9 | CTCCACCATCTCCCCGCATCCATCCTCACATCGCGCGGGACGGAGTCACCTAGTGCAG | 9230 fluorescence intensity (a.u.)
10 | GGGTTTCCGCCGCCTCTCGTCCGCCTCGCCGACCTCGGACCGGAGTCACCTAGTGCAG | 10900 fluorescence intensity (a.u.)
11 | CTCCATTTCCAACTTCCACTGTAGTTAGCTCGTGCAGGCACGGAGTCACCTAGTGCAG | 11900 fluorescence intensity (a.u.)
12 | AATCGTTGAACCCTACTGCACGTGCACTTGTATTTATTTTCGGAGTCACCTAGTGCAG | 11400 fluorescence intensity (a.u.)
13 | ACTCCCTCCATCTTATGATTTTGACTTTTGCTTGCACTGTCGGAGTCACCTAGTGCAG | 8490 fluorescence intensity (a.u.)
14 | TCTATTTCGGACGCAAATCACACACTTCCTATCCATCTCTCGGAGTCACCTAGTGCAG | 8720 fluorescence intensity (a.u.)
15 | CCACCACCGCCGTGAGCTTGCCCCGCACTGGATCGGCCCTCGGAGTCACCTAGTGCAG | 8160 fluorescence intensity (a.u.)
16 | ATTGTTCTAGTAGTCCACCGTTTTTCTTGGATTTTCTTCACGGAGTCACCTAGTGCAG | 12000 fluorescence intensity (a.u.)
17 | AATTTTGACTTTTTCTTGACTAATTAGGCCATCCGATGGGCGGAGTCACCTAGTGCAG | 17800 fluorescence intensity (a.u.)
18 | GTGAGTGTGAGCGGTTTGCATGTTCTTTCTAGACAAATTTCGGAGTCACCTAGTGCAG | 8160 fluorescence intensity (a.u.)
19 | ACGCCCACTGGTACTACTTTGCCATAGATTCTTTTTATTCCGGAGTCACCTAGTGCAG | 10300 fluorescence intensity (a.u.)
20 | AACTCTCTCCGCTCCAAACGACTAGCTCGATCACTTGCTACGGAGTCACCTAGTGCAG | 8740 fluorescence intensity (a.u.)
21 | CCCGCTCGCCGCCACCGTGTCACGCCGGCAGCCTCAGGTTCGGAGTCACCTAGTGCAG | 8860 fluorescence intensity (a.u.)
22 | CCCCACCCCTGCGCGGCCTCCTCGCGCGCACGGCCGGCGCCGGAGTCACCTAGTGCAG | 9680 fluorescence intensity (a.u.)
23 | CTATGGTTTGGTTTGAATTTTACTGTTGTATGCTGTTCCCCGGAGTCACCTAGTGCAG | 8660 fluorescence intensity (a.u.)
24 | TCACCTCATTTTACGTATCTTCCCAATTTCCTTTATCTCCCGGAGTCACCTAGTGCAG | 13600 fluorescence intensity (a.u.)
25 | CTCCATGCCAATCCTCGTGTAAACTCTCATTCCTCTTCTCCGGAGTCACCTAGTGCAG | 11500 fluorescence intensity (a.u.)
26 | CTCTCTCTCTCTCTCTCTCTCTGCTCCCGCCGGAGGCAACCGGAGTCACCTAGTGCAG | 9040 fluorescence intensity (a.u.)
27 | GTCCCTAGGCGGTTTTGACTCCAGTTTTGTCCCACGTGGCCGGAGTCACCTAGTGCAG | 11800 fluorescence intensity (a.u.)

Row | Sequence | binding signal
28 | TCATGGATTTCGCCCCTTCTCAGCCTCAATCTCGGCACCACGGAGTCACCTAGTGCAG | 8070 fluorescence intensity (a.u.)
29 | CTGAGCTCCGCCGTCCACCGCTATCGGCTTGAAACCGCCGCGGAGTCACCTAGTGCAG | 8080 fluorescence intensity (a.u.)
30 | CGTGAGATTTGGCTGGGGAGTGGTGGTGGTGCGCCGCGGGCGGAGTCACCTAGTGCAG | 8920 fluorescence intensity (a.u.)
31 | GCGGGATGGGGAGGCGGCGCCGCGAGGAGGAGGGGATGGGCGGAGTCACCTAGTGCAG | 11900 fluorescence intensity (a.u.)
32 | CATGGACTCTGCTCATCGTTACATTTGTTGCTTCTCCTTGCGGAGTCACCTAGTGCAG | 10700 fluorescence intensity (a.u.)
33 | TTGGCTGCACAACCTTTTATCAGTCGATCCCCACCGCCGGCGGAGTCACCTAGTGCAG | 8240 fluorescence intensity (a.u.)
34 | ACATTTCTCCCATTTTTAATTTTGCTTGTGGTTGGAACTTCGGAGTCACCTAGTGCAG | 8200 fluorescence intensity (a.u.)
35 | TAAATTTCCAACTTTTTCATCAGATCGTTCCAATTTTAACCGGAGTCACCTAGTGCAG | 8330 fluorescence intensity (a.u.)
36 | AGTTTCAGAACTCACCTCTTTATTAATACATTTAGTTGTTCGGAGTCACCTAGTGCAG | 8850 fluorescence intensity (a.u.)
37 | AAGTGATTTCACGGTTTGAGAAGTTATTGGGGAGGTATATCGGAGTCACCTAGTGCAG | 9350 fluorescence intensity (a.u.)
38 | CTCAACACTTGCACGAGTTCTTCGTTGCTTGCCGCTCTATCGGAGTCACCTAGTGCAG | 9120 fluorescence intensity (a.u.)
39 | ATGGGTGTTTGTTTTTCGCTAATGTGGCATCCTAGTCAGACGGAGTCACCTAGTGCAG | 9480 fluorescence intensity (a.u.)
40 | ATTCCATTACCTCTGCTATATATACACACAAACCGCTGACCGGAGTCACCTAGTGCAG | 10300 fluorescence intensity (a.u.)
41 | CGTCGTGTGCGTTCTGTTAGTTTGGTTGAGTCGTGATCACCGGAGTCACCTAGTGCAG | 12200 fluorescence intensity (a.u.)
42 | CGGGCTGACACCCTGTGCCTTTTTCCTTTTGTTTCTTTTGCGGAGTCACCTAGTGCAG | 8240 fluorescence intensity (a.u.)
43 | TCTGCGTCGTGTACTCGTGTGCTTTGGTGTTTTAATTTCTCGGAGTCACCTAGTGCAG | 12100 fluorescence intensity (a.u.)
44 | GGTGGTGGTGGTGGAGAGAGAGAGGAGTGCGTCGCCGACGCGGAGTCACCTAGTGCAG | 11700 fluorescence intensity (a.u.)
45 | TGCCGGTGTGGCTTGCTGAGTACTGTGGTTGTACTCATTCCGGAGTCACCTAGTGCAG | 8060 fluorescence intensity (a.u.)
46 | TTTTGCTTATCATATCATATATTTTCTAAGCTTGATTTTTCGGAGTCACCTAGTGCAG | 8050 fluorescence intensity (a.u.)
47 | ACTACACCTACGGCTCATATGGACCCGGTCCACACAAATTCGGAGTCACCTAGTGCAG | 10200 fluorescence intensity (a.u.)
48 | ATCCCGCCGCCTCTCCTCCTTATCCCCTCCATCTTCTCCGCGGAGTCACCTAGTGCAG | 9520 fluorescence intensity (a.u.)
49 | ATATATCATACCTTGGTACATTTGTCAGCCTCACGGCAGTCGGAGTCACCTAGTGCAG | 8190 fluorescence intensity (a.u.)
50 | GCATTATTCTTGTTAGACAGTCGTTGACCCTAAATGAACTCGGAGTCACCTAGTGCAG | 10600 fluorescence intensity (a.u.)
51 | CGTATGGCCAAAATTGATTATAGCTTTTTTTTATTTAGTGCGGAGTCACCTAGTGCAG | 8030 fluorescence intensity (a.u.)
52 | CCCACCGCCACCACCGCCGCTTCCGACCACCCCGTCCTCACGGAGTCACCTAGTGCAG | 10700 fluorescence intensity (a.u.)
53 | CCCCAATCCTCGCATGCCAACTCACCTGTGTTGCTTTTGCCGGAGTCACCTAGTGCAG | 8830 fluorescence intensity (a.u.)
54 | TTCTGCAATGGTATCTCTCGTCTGAGAGCGGTTGGTTCTTCGGAGTCACCTAGTGCAG | 11200 fluorescence intensity (a.u.)
